Data published in PMC12376507.
Results are given in words; binding and its absence hold for the method and conditions named. Binding seen in cells or lysates may run through a third protein. Where a sequence is shown, tags or fusion partners need not be part of it.

The chains behind the UniProt entries cited, without tags or fusion partners.
UniProt P55884: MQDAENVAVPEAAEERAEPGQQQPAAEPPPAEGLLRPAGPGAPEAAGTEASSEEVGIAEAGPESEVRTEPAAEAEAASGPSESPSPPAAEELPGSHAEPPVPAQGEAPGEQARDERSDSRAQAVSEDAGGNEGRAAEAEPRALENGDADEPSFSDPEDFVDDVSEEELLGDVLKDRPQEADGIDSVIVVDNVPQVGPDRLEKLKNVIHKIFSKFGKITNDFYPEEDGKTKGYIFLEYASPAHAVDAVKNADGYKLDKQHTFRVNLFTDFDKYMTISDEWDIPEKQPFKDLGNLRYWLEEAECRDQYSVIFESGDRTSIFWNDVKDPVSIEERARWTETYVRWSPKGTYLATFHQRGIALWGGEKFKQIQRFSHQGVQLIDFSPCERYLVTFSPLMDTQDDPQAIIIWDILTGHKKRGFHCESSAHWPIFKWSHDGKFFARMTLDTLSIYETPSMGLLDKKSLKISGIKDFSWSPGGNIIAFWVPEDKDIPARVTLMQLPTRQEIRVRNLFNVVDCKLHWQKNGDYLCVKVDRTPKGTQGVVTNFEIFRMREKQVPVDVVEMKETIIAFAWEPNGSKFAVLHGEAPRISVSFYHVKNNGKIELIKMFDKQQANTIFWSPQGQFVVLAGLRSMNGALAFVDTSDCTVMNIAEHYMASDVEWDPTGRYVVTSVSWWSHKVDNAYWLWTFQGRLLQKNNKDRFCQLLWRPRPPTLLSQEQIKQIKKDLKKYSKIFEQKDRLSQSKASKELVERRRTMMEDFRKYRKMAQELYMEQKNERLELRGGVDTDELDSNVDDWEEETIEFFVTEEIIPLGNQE

Target: T1, Flag-HPD (4-hydroxyphenylpyruvate dioxygenase with N-terminal Flag tag) (human) (UniProt P32754)
T1 sequence: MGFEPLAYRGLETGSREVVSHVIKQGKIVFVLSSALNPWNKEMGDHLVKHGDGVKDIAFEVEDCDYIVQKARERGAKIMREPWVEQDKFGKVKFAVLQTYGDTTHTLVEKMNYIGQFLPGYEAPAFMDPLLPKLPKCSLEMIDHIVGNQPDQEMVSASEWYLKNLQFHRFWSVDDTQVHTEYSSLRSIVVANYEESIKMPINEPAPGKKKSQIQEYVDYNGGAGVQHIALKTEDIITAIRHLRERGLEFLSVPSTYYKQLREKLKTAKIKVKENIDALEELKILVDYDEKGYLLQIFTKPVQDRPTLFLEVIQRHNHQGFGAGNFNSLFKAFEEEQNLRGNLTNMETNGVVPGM
Assay: co-IP; Flag-HPD immunoprecipitate tested for RPS10, EIF3A and EIF3B (Figure S3G,H); cell line and conditions not stated

binding: no binding
Substance: EIF3B (from UniProt P55884 1-814)
